Measured values reported in PubChem BioAssay AID651707 (NMMLSC, 2012).
Some of the results follow. Some tests of the compounds listed are not included; inactive here does not mean inactive elsewhere.

test: fluorescent artefacts in myeloid progenitor cells – cell-based, flow cytometry, GFP/APC, Cherry Pick01, artefact control for AML myeloid differentiation project, confirmation (AID 651707); details: ER-HoxA9 myeloid progenitors, no estrogen, GFP autofluorescence flow cytometry; measured here: double positive GFP/APC population; stronger effect = higher value;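 further: share of cells both GFP positive and bound by Mac1 APC antibody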

SMILES | double positive
CCN(CC)CC(C)C(C)OC(=O)C(O)(c1ccccc1)c1ccccc1 (stereo unspecified) | 0%
